Measurements from article PMC7819943, “Rice protein-binding microarrays: a tool to detect cis-acting elements near promoter regions in rice”.
The other results are listed elsewhere or left out.

These sequences were tested against T1, OsSMF1 (Oryza sativa, UniProt Q6ZLB0 1-436) (assay: protein-binding microarray (RPBM); PBS, 2% BSA, 51.3 ng/ul salmon testes DNA, 50 uM zinc acetate, 200 nM TF, 25 C, 1 h; high values mean tight binding). Details: protein: recombinant; tags: N-terminal polyhistidine and DsRed monomer fusion (pET32a); chain copies: 2; label: CyDye5-dUTP incorporated in the synthesized complementary strand; 3' TTTTT single-stranded linker to array surface; dsDNA, one strand shown.
T1 sequence: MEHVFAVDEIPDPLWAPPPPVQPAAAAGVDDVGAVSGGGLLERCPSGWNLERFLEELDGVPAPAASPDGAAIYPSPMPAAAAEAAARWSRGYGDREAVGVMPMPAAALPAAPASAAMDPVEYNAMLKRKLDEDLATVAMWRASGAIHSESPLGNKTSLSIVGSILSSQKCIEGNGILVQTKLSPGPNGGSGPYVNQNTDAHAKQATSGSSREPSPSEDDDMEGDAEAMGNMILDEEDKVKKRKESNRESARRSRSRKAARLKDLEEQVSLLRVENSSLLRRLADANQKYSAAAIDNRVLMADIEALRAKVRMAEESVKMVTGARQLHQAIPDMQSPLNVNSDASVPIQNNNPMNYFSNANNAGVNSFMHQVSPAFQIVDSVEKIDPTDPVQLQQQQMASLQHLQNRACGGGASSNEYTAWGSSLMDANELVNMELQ
In short: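 Binding signal here means per-feature fluorescence intensity in arbitrary units. The values were read on an Axon 4000B scanner after a custom Agilent array, double-stranded by primer extension with Cy5-dUTP, was incubated with 200 nM protein at 25 °C for 1 h in PBS with 2% BSA, salmon testes DNA and 50 µM zinc acetate, then washed. The proteins were transcription factors with an N-terminal polyhistidine tag and DsRed, expressed in E. coli BL21-CodonPlus and purified on Ni–NTA.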

Sequence	binding signal
CCTGTCCTCGCAGGCGTGCGCCTCCTCCTCGGAGACCCTGCGGAGTCACCTAGTGCAG	3640 fluorescence intensity (a.u.)
GCCGTAGCCAATCGCTCCACCTCGGCTCCAGCAGTCCGGCCGGAGTCACCTAGTGCAG	3150 fluorescence intensity (a.u.)
CCAACCATGCTTCGCAGTTGTCACAGAACGTCAACAGTGCCGGAGTCACCTAGTGCAG	3460 fluorescence intensity (a.u.)
CAAGGGTGTCGACATGATGAGCCACGCGCCGGCGCGTGGGCGGAGTCACCTAGTGCAG	3640 fluorescence intensity (a.u.)
CTCCACGTCGTCGGCACTGCCACCTCCTACGCCACCGCGGCGGAGTCACCTAGTGCAG	6340 fluorescence intensity (a.u.)
AGCAATAGCTATGGCAGCGGATCCGCGCCCGAGATTTCCTCGGAGTCACCTAGTGCAG	3190 fluorescence intensity (a.u.)
CTCTCACTGTCCGTACGTCGTCGGCTTGATCACCAACCTTCGGAGTCACCTAGTGCAG	25300 fluorescence intensity (a.u.)
AAAACTACATTTGCTGCTCTAGCTTAGGAGATACACAACTCGGAGTCACCTAGTGCAG	3200 fluorescence intensity (a.u.)
GCTCACCTCCAGCTATATATACACATCACAAGCTAGCTGCCGGAGTCACCTAGTGCAG	5050 fluorescence intensity (a.u.)
CGTATCATTTCGCAAATCCCGATTGGTCCCCGTGGCGCAGCGGAGTCACCTAGTGCAG	19900 fluorescence intensity (a.u.)
AGTTCTTCATCAATATGATTAAGTGTGACATCAGGCCTGACGGAGTCACCTAGTGCAG	4850 fluorescence intensity (a.u.)
TTTTGTCTTTGAAGCATCCGCTGAGCTGGGCTCGAACTAGCGGAGTCACCTAGTGCAG	3690 fluorescence intensity (a.u.)
CAGTTTCTAAGTGATGTGGATTAACTAAGGGTAAATTGGACGGAGTCACCTAGTGCAG	3420 fluorescence intensity (a.u.)
CCACCGCACTGGCAAATCAAGCGGCAGTGACGCAGAGTATCGGAGTCACCTAGTGCAG	3900 fluorescence intensity (a.u.)
TGGTAATTGAATACGTAAGCCGAACACTATGCTTCTAATACGGAGTCACCTAGTGCAG	3930 fluorescence intensity (a.u.)
GGGTGGAGGAGGAGGGAGAAGATGAAGCAAACGAGAGAGACGGAGTCACCTAGTGCAG	4720 fluorescence intensity (a.u.)
ACAGACAATTCACAGGGGTCCTACTGCAAATATGTTACTACGGAGTCACCTAGTGCAG	3160 fluorescence intensity (a.u.)
GGGTATGACGATCGACAGCATGACGAGGATCCAAATAGTTCGGAGTCACCTAGTGCAG	5750 fluorescence intensity (a.u.)
GTAATAACCTTTTCGTCGACGAGGCATAAATCGGCTGCACCGGAGTCACCTAGTGCAG	3390 fluorescence intensity (a.u.)
TACTTAATTTCTTTTAAATTGGTTCATATGTGTTTAGTTGCGGAGTCACCTAGTGCAG	31800 fluorescence intensity (a.u.)
CTCCAACGTCGCCGCTCCAGCCCCGATCCACGCCGCCGCACGGAGTCACCTAGTGCAG	3400 fluorescence intensity (a.u.)
GCGAGAGGGGACTGGGGAGGGGAGGGGCGGCGCTCGCTGGCGGAGTCACCTAGTGCAG	8160 fluorescence intensity (a.u.)
TAGCTCTCGCCAGTCCACGTAGCCCAATCCACAACCGCCACGGAGTCACCTAGTGCAG	5700 fluorescence intensity (a.u.)
TAATCTATACGGAGGATGTTGCCATGTAGGACCCCAAAAGCGGAGTCACCTAGTGCAG	35500 fluorescence intensity (a.u.)
AAATAAGAATGATGTCACGAGAAAATCACTCTCATCATCACGGAGTCACCTAGTGCAG	5390 fluorescence intensity (a.u.)
ACCGTCCTCCTCGTCACCCACCAGCTCGACTTCCTCCGCACGGAGTCACCTAGTGCAG	5570 fluorescence intensity (a.u.)
ACGCAGTAATGACGTCACAATGTTGGTATCACCGAAACCACGGAGTCACCTAGTGCAG	16500 fluorescence intensity (a.u.)

Sequence	binding signal
TATGGCAAGCTAAAGTCTCTGTTTCAAATAAACGACACGTCGGAGTCACCTAGTGCAG	3380 fluorescence intensity (a.u.)
CGGATCGACGGACTGGACGGGGAGTTTTGAGATTGCGTCACGGAGTCACCTAGTGCAG	3640 fluorescence intensity (a.u.)
AGGACAGAGGAGAGGGGAGGGGTAATATGTGTCCAATAATCGGAGTCACCTAGTGCAG	4080 fluorescence intensity (a.u.)
AACCCACACACACCTCACACCTCACCACCATCACCTCCTCCGGAGTCACCTAGTGCAG	3140 fluorescence intensity (a.u.)
CGCCGTCTCCACGGCCGAAGCTTCCACTTCAGCCCCACGTCGGAGTCACCTAGTGCAG	4060 fluorescence intensity (a.u.)
TAGAAATATTTGGTCACCTGTTTTCTCGGTGACGATTGATCGGAGTCACCTAGTGCAG	3570 fluorescence intensity (a.u.)
AATTCGCAGAAACCCGGTGACTTGTTTAGGACCCTAATGACGGAGTCACCTAGTGCAG	7240 fluorescence intensity (a.u.)
GCTCCATGACACGACAGCGCGTTTGGGAACGCCTCGTGATCGGAGTCACCTAGTGCAG	4960 fluorescence intensity (a.u.)
AGATATGTATGTGTGAGTATTCTAGTAATGAACTGCACCACGGAGTCACCTAGTGCAG	3920 fluorescence intensity (a.u.)
CAAATAGAACATAGCCATACGAAATGACTCACTAACCTCTCGGAGTCACCTAGTGCAG	4910 fluorescence intensity (a.u.)
GGTGGCCCTCCCCTTAGCGGCATATCTCCTCGGTGGCGGGCGGAGTCACCTAGTGCAG	3450 fluorescence intensity (a.u.)
TCCCTCACTCCAACCCATCCGGTGACATCAATCCACACACCGGAGTCACCTAGTGCAG	5810 fluorescence intensity (a.u.)
CCTATATGGCCCAACATGTCATCTCCCTACTCCCTCTTCTCGGAGTCACCTAGTGCAG	3840 fluorescence intensity (a.u.)
ACACACAACACAGGAGAAGATGGACGTGTCAATTTACGGACGGAGTCACCTAGTGCAG	3310 fluorescence intensity (a.u.)
TTACTGTTTAATAGCCACGCATCACATAAGTGCGACTTGACGGAGTCACCTAGTGCAG	3730 fluorescence intensity (a.u.)
TTCTAATTTCTTGAGAGATATTTTCCGATTTATATTAATTCGGAGTCACCTAGTGCAG	10600 fluorescence intensity (a.u.)
GCCCGGATCGGCCGGCATTCCCCGCCCCGCGCGCGCTCCGCGGAGTCACCTAGTGCAG	3400 fluorescence intensity (a.u.)
GGCTTCGTCATCTCTCCCGACTTCTGACAACGTGGTAGTGCGGAGTCACCTAGTGCAG	5660 fluorescence intensity (a.u.)
AAAGGAAGTTTGATACAGCAGGTCAAGCTCAAGGTCAAAACGGAGTCACCTAGTGCAG	28300 fluorescence intensity (a.u.)
GATGAAGTTTGTTGGCACTGATGAGTTGCCTGGACCAGCACGGAGTCACCTAGTGCAG	3180 fluorescence intensity (a.u.)
ACCCATGCCGAAGATGGACATGACAGATCGATCTTGTCTCCGGAGTCACCTAGTGCAG	3700 fluorescence intensity (a.u.)
AGCGATGATCTAGCCATAAATCTTTCCGTTGACTCTCGCGCGGAGTCACCTAGTGCAG	31600 fluorescence intensity (a.u.)
ATTTCAGTGAGCTGACCTTGGCGCAGGCCGCCTCCAAGAACGGAGTCACCTAGTGCAG	4430 fluorescence intensity (a.u.)
ACACTGTTCACCATGATCCACGTATATATGTGACGAAAATCGGAGTCACCTAGTGCAG	4560 fluorescence intensity (a.u.)
GCTGCCGCACCGCGCGATGCGTGACCTGGCCGGCGTGCACCGGAGTCACCTAGTGCAG	5920 fluorescence intensity (a.u.)
TGCTACTTGCTCGTGGGATCATCATATTGCTGTCGACCTGCGGAGTCACCTAGTGCAG	3660 fluorescence intensity (a.u.)
TCAACCTCAACAACGCCGGTGTGAGGGTCCTCGAGGCCACCGGAGTCACCTAGTGCAG	17900 fluorescence intensity (a.u.)

Given comma-delimited: part of the list above.
Sequence,binding signal
GGTGGCCCTCCCCTTAGCGGCATATCTCCTCGGTGGCGGGCGGAGTCACCTAGTGCAG,3450 fluorescence intensity (a.u.)
TCCCTCACTCCAACCCATCCGGTGACATCAATCCACACACCGGAGTCACCTAGTGCAG,5810 fluorescence intensity (a.u.)
CCTATATGGCCCAACATGTCATCTCCCTACTCCCTCTTCTCGGAGTCACCTAGTGCAG,3840 fluorescence intensity (a.u.)
